Measured values: PMC12858401
Results are given in words; binding and its absence hold for the method and conditions named. Binding seen in cells or lysates may run through a third protein. A yes stands for co-enrichment or nearness to the bait. Other partners may have been found.

Sequences of proteins named here, by UniProt entry; tags and fusion partners are left off. Residues count along the entry.
UniProt Q15075: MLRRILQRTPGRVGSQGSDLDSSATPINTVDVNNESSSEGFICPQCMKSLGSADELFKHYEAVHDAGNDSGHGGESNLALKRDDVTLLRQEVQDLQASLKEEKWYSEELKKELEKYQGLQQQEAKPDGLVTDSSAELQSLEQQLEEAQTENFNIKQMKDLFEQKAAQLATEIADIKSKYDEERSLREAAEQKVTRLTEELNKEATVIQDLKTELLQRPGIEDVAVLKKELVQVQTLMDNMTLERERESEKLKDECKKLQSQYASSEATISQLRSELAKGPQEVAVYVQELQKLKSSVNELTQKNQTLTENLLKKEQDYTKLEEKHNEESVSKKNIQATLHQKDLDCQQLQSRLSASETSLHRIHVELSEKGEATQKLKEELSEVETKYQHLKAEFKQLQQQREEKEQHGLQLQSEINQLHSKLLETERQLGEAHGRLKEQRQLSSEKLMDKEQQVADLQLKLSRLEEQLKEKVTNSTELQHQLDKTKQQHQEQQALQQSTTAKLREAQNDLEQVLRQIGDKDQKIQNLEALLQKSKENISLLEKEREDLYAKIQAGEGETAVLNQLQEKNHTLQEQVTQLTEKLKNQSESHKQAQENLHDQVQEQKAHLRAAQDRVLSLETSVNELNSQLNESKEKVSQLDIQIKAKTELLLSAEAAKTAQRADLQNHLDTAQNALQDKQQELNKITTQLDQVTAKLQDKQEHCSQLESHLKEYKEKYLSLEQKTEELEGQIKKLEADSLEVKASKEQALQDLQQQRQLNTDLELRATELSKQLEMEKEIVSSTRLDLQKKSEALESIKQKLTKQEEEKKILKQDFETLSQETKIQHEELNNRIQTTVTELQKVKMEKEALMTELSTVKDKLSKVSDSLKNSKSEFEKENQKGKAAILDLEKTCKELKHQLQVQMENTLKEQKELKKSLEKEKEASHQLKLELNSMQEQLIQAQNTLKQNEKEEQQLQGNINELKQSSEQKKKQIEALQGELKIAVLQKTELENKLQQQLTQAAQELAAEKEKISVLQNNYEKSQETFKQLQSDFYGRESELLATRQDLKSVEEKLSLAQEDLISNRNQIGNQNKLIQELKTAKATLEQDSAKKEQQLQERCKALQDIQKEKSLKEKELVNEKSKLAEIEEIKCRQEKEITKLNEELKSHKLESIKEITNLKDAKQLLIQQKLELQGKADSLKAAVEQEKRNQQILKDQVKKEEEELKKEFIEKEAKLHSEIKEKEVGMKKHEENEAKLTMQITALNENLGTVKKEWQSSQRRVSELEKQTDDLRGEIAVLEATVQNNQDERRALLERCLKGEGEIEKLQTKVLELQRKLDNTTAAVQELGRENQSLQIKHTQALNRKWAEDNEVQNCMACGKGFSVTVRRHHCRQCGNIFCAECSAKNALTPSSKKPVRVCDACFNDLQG
UniProt P09211: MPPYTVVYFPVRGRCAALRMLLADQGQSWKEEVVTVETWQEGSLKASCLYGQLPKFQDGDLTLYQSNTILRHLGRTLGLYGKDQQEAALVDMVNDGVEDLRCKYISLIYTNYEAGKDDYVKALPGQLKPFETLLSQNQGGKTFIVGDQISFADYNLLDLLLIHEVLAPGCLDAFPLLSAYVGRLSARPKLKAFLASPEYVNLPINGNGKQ
UniProt P52630: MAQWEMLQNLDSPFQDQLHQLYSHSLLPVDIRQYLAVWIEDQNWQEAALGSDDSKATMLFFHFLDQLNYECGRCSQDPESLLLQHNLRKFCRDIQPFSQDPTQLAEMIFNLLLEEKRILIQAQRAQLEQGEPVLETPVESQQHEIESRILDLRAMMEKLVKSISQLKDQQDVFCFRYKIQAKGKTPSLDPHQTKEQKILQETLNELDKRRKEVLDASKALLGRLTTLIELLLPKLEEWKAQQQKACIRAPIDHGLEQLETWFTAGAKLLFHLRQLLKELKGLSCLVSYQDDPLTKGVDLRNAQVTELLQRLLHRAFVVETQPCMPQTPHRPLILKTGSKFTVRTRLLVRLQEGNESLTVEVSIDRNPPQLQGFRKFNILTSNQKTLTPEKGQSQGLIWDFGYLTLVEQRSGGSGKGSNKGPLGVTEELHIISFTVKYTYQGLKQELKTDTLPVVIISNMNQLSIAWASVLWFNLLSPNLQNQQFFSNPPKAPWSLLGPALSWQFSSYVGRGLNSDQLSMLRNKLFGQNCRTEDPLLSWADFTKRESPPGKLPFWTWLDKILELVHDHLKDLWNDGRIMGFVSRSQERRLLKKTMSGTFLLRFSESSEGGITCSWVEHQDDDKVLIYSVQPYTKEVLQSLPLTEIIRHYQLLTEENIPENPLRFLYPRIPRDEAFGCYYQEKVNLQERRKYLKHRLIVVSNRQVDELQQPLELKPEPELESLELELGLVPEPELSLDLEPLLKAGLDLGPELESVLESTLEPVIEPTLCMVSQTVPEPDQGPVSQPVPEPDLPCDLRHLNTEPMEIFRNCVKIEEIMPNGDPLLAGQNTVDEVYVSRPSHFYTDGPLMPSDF
UniProt Q99805, residues 29-663: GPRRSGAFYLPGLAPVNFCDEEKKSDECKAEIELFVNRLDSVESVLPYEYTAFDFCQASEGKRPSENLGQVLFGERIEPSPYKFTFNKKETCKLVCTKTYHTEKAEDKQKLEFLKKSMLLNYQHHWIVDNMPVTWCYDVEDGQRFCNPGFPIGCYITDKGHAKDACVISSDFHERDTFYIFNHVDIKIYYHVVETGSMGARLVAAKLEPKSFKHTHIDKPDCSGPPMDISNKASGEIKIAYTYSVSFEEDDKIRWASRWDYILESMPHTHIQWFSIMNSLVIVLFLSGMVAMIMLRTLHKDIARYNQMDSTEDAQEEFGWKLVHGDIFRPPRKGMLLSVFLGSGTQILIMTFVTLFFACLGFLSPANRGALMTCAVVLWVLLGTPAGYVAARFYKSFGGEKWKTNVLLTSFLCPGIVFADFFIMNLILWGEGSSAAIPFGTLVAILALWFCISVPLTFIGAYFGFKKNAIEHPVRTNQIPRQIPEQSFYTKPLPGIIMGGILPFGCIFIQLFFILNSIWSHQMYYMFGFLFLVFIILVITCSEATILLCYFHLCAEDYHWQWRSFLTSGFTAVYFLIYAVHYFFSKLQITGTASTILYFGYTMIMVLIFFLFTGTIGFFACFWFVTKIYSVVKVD
UniProt Q07157: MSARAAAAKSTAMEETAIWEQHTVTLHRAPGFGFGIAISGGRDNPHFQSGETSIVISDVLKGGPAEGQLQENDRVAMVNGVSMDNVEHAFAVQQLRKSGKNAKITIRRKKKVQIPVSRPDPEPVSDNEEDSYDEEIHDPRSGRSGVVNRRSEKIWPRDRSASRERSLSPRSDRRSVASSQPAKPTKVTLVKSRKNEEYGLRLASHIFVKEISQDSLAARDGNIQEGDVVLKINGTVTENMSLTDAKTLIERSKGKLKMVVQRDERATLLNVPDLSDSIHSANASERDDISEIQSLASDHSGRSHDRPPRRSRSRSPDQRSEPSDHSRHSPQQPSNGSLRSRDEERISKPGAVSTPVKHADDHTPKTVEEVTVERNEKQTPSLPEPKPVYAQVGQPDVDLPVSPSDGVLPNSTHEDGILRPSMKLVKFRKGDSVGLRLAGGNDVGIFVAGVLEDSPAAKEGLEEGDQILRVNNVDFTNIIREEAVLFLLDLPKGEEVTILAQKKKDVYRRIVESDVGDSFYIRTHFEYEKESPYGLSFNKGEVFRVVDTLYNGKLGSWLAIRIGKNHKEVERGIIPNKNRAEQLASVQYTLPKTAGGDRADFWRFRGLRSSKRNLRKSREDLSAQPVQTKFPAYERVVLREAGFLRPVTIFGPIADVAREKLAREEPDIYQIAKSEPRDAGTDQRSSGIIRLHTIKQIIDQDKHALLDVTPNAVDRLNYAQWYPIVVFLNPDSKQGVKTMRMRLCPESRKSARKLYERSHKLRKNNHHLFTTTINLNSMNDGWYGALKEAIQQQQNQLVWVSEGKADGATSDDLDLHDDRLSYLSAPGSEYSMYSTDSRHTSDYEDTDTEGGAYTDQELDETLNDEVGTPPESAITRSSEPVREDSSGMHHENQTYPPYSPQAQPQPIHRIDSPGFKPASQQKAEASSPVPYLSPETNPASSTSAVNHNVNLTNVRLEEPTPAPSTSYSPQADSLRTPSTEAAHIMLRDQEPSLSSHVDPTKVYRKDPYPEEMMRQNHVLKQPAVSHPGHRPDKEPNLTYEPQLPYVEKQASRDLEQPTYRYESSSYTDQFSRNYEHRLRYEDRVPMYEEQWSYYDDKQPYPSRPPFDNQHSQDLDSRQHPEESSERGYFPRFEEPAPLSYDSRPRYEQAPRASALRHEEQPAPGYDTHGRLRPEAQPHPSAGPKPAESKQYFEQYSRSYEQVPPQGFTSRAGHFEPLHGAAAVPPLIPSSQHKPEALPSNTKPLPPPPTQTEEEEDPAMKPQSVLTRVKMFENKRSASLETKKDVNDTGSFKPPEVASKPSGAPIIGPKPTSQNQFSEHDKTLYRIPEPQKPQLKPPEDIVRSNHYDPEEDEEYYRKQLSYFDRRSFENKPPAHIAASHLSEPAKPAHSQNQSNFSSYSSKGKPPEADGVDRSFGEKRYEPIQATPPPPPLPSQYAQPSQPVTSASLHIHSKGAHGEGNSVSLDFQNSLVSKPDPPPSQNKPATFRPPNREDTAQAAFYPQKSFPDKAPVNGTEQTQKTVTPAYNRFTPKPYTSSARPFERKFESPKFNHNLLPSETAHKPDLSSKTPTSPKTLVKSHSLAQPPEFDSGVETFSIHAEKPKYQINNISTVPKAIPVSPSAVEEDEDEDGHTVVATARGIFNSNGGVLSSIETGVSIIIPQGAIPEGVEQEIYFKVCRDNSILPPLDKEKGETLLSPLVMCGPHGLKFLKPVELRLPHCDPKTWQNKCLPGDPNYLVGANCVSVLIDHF

Assays:
[1] = molecular target: EGFR–HaloTag (Flag–EGFR–HaloTag; full-length EGFR with an intracellular C-terminal HaloTag) (UniProt P00533); assay: proximity labelling; ICD ecto-tag MultiMap: live A549 cells expressing EGFR–HaloTag, serum-starved, EY–HTL anchored and washed out; with versus without EGFR–HaloTag, and EGF for 5 min or 60 min versus no EGF; three biotin photoprobes at 100 μM, 2 min blue light at 4 °C; streptavidin enrichment and LC–MS/MS
[2] = molecular target: Flag–EGFR (full-length EGFR with an extracellular N-terminal Flag tag) (UniProt P00533); assay: proximity labelling; ECD ecto-tag MultiMap: live A549 cells expressing Flag–EGFR, serum-starved, anti-Flag–EY antibody bound at 4 °C; EGF for 5 min or 60 min versus no EGF; aryl-diazirine-biotin, aryl-azide-biotin or phenol-biotin at 100 μM, 2 min blue light at 4 °C; streptavidin enrichment and LC–MS/MS; enrichment normalised to EGFR
[3] = molecular target: EGFR–HaloTag (Flag–EGFR–HaloTag; full-length EGFR with an intracellular C-terminal HaloTag) (UniProt P00533); assay: proximity labelling; ICD ecto-tag MultiMap with EY–HTL on EGFR–HaloTag in A549 cells; biotin immunoprecipitate (streptavidin beads) read by western blot; EGF for 5, 10, 30 and 60 min

binding [1] | binding [2] | binding [3] | Molecule
binds |  |  | Early endosomal protein EEA1 (from UniProt Q15075 1-1411)
binds | binds |  | GSTP1 (from UniProt P09211 1-210) (enzyme)
 | binds | binds | Integrin A2 (ITGA2) (from UniProt P17301 30-1181)
binds |  |  | PDLIM7 (from UniProt Q9NR12 1-457)
 | binds |  | STAT2 (from UniProt P52630 1-851)
binds |  |  | TM9S2 (from UniProt Q99805 29-663)
binds | binds |  | ZO1 (from UniProt Q07157 1-1748)
binds | binds |  | β-catenin (from UniProt P35222 1-781)
binds |  |  | Translocon-associated protein SSRA (protein, UniProt P43307 19-286) VLFRGGPRGLLAVAQDLTEDEETVEDSIIEDEDDEAEVEEDEPTDLVEDKEEEDVSGEPEASPSADTTILFVKGEDFPANNIVKFLVGFTNKGTEDFIVESLDASFRYPQDYQFYIQNFTALPLNTVVPPQRQATFEYSFIPAEPMGGRPFGLVINLNYKDLNGNVFQDAVFNQTVTVIEREDGLDGETIFMYMFLAGLGLLVIVGLHQLLESRKRKRPIQKVEMGTSSQNDVDMSWIPQETLNQINKASPRRLPRKRAQKRSVGSDE
binds |  |  | LASP1 (protein, UniProt Q14847 1-261) MNPNCARCGKIVYPTEKVNCLDKFWHKACFHCETCKMTLNMKNYKGYEKKPYCNAHYPKQSFTMVADTPENLRLKQQSELQSQVRYKEEFEKNKGKGFSVVADTPELQRIKKTQDQISNIKYHEEFEKSRMGPSGGEGMEPERRDSQDGSSYRRPLEQQQPHHIPTSAPVYQQPQQQPVAQSYGGYKEPAAPVSIQRSAPGGGGKRYRAVYDYSAADEDEVSFQDGDTIVNVQQIDDGWMYGTVERTGDTGMLPANYVEAI
 | binds |  | CLPTM1 (protein, UniProt O96005 1-669) MAAAQEADGARSAVVAAGGGSSGQVTSNGSIGRDPPAETQPQNPPAQPAPNAWQVIKGVLFRIFIIWAISSWFRRGPAPQDQAGPGGAPRVASRNLFPKDTLMNLHVYISEHEHFTDFNATSALFWEQHDLVYGDWTSGENSDGCYEHFAELDIPQSVQQNGSIYIHVYFTKSGFHPDPRQKALYRRLATVHMSRMINKYKRRRFQKTKNLLTGETEADPEMIKRAEDYGPVEVISHWHPNITINIVDDHTPWVKGSVPPPLDQYVKFDAVSGDYYPIIYFNDYWNLQKDYYPINESLASLPLRVSFCPLSLWRWQLYAAQSTKSPWNFLGDELYEQSDEEQDSVKVALLETNPYLLALTIIVSIVHSVFEFLAFKNDIQFWNSRQSLEGLSVRSVFFGVFQSFVVLLYILDNETNFVVQVSVFIGVLIDLWKITKVMDVRLDREHRVAGIFPRLSFKDKSTYIESSTKVYDDMAFRYLSWILFPLLGCYAVYSLLYLEHKGWYSWVLSMLYGFLLTFGFITMTPQLFINYKLKSVAHLPWRMLTYKALNTFIDDLFAFVIKMPVMYRIGCLRDDVVFFIYLYQRWIYRVDPTRVNEFGMSGEDPTAAAPVAEVPTAAGALTPTPAPTTTTATREEASTSLPTKPTQGASSASEPQEAPPKPAEDKKKD
 | binds |  | SCARB1 (protein, UniProt Q8WTV0 1-552) MGCSAKARWAAGALGVAGLLCAVLGAVMIVMVPSLIKQQVLKNVRIDPSSLSFNMWKEIPIPFYLSVYFFDVMNPSEILKGEKPQVRERGPYVYREFRHKSNITFNNNDTVSFLEYRTFQFQPSKSHGSESDYIVMPNILVLGAAVMMENKPMTLKLIMTLAFTTLGERAFMNRTVGEIMWGYKDPLVNLINKYFPGMFPFKDKFGLFAELNNSDSGLFTVFTGVQNISRIHLVDKWNGLSKVDFWHSDQCNMINGTSGQMWPPFMTPESSLEFYSPEACRSMKLMYKESGVFEGIPTYRFVAPKTLFANGSIYPPNEGFCPCLESGIQNVSTCRFSAPLFLSHPHFLNADPVLAEAVTGLHPNQEAHSLFLDIHPVTGIPMNCSVKLQLSLYMKSVAGIGQTGKIEPVVLPLLWFAESGAMEGETLHTFYTQLVLMPKVMHYAQYVLLALGCVLLLVPVICQIRSQVGAGQRAARADSHSLACWGKGASDRTLWPTAAWSPPPAAVLRLCRSGSGHCWGLRSTLASFACRVATTLPVLEGLGPSLGGGTGS
 | binds |  | STX7 (protein, UniProt O15400 1-261) MSYTPGVGGDPAQLAQRISSNIQKITQCSVEIQRTLNQLGTPQDSPELRQQLQQKQQYTNQLAKETDKYIKEFGSLPTTPSEQRQRKIQKDRLVAEFTTSLTNFQKVQRQAAEREKEFVARVRASSRVSGSFPEDSSKERNLVSWESQTQPQVQVQDEEITEDDLRLIHERESSIRQLEADIMDINEIFKDLGMMIHEQGDVIDSIEANVENAEVHVQQANQQLSRAADYQRKSRKTLCIIILILVIGVAIISLIIWGLNH
 | binds |  | BCAM (protein, UniProt P50895 32-628) EVRLSVPPLVEVMRGKSVILDCTPTGTHDHYMLEWFLTDRSGARPRLASAEMQGSELQVTMHDTRGRSPPYQLDSQGRLVLAEAQVGDERDYVCVVRAGAAGTAEATARLNVFAKPEATEVSPNKGTLSVMEDSAQEIATCNSRNGNPAPKITWYRNGQRLEVPVEMNPEGYMTSRTVREASGLLSLTSTLYLRLRKDDRDASFHCAAHYSLPEGRHGRLDSPTFHLTLHYPTEHVQFWVGSPSTPAGWVREGDTVQLLCRGDGSPSPEYTLFRLQDEQEEVLNVNLEGNLTLEGVTRGQSGTYGCRVEDYDAADDVQLSKTLELRVAYLDPLELSEGKVLSLPLNSSAVVNCSVHGLPTPALRWTKDSTPLGDGPMLSLSSITFDSNGTYVCEASLPTVPVLSRTQNFTLLVQGSPELKTAEIEPKADGSWREGDEVTLICSARGHPDPKLSWSQLGGSPAEPIPGRQGWVSSSLTLKVTSALSRDGISCEASNPHGNKRHVFHFGTVSPQTSQAGVAVMAVAVSVGLLLLVVAVFYCVRRKGGPCCRQRREKGAPPPGEPGLSHSGSEQPEQTGLLMGGASGGARGGSGGFGDEC
 | binds |  | CD166 (protein, UniProt Q13740 28-583) WYTVNSAYGDTIIIPCRLDVPQNLMFGKWKYEKPDGSPVFIAFRSSTKKSVQYDDVPEYKDRLNLSENYTLSISNARISDEKRFVCMLVTEDNVFEAPTIVKVFKQPSKPEIVSKALFLETEQLKKLGDCISEDSYPDGNITWYRNGKVLHPLEGAVVIIFKKEMDPVTQLYTMTSTLEYKTTKADIQMPFTCSVTYYGPSGQKTIHSEQAVFDIYYPTEQVTIQVLPPKNAIKEGDNITLKCLGNGNPPPEEFLFYLPGQPEGIRSSNTYTLTDVRRNATGDYKCSLIDKKSMIASTAITVHYLDLSLNPSGEVTRQIGDALPVSCTISASRNATVVWMKDNIRLRSSPSFSSLHYQDAGNYVCETALQEVEGLKKRESLTLIVEGKPQIKMTKKTDPSGLSKTIICHVEGFPKPAIQWTITGSGSVINQTEESPYINGRYYSKIIISPEENVTLTCTAENQLERTVNSLNVSAISIPEHDEADEISDENREKVNDQAKLIVGIVVGLLLAALVAGVVYWLYMKKSKTASKHVNKDLGNMEENKKLEENNHKTEA
 | binds |  | TMED10 (protein, UniProt P49755 32-219) ISFHLPINSRKCLREEIHKDLLVTGAYEISDQSGGAGGLRSHLKITDSAGHILYSKEDATKGKFAFTTEDYDMFEVCFESKGTGRIPDQLVILDMKHGVEAKNYEEIAKVEKLKPLEVELRRLEDLSESIVNDFAYMKKREEEMRDTNESTNTRVLYFSIFSMFCLIGLATWQVFYLRRFFKAKKLIE
 | binds |  | AP1M1 (protein, UniProt Q9BXS5 1-423) MSASAVYVLDLKGKVLICRNYRGDVDMSEVEHFMPILMEKEEEGMLSPILAHGGVRFMWIKHNNLYLVATSKKNACVSLVFSFLYKVVQVFSEYFKELEEESIRDNFVIIYELLDELMDFGYPQTTDSKILQEYITQEGHKLETGAPRPPATVTNAVSWRSEGIKYRKNEVFLDVIESVNLLVSANGNVLRSEIVGSIKMRVFLSGMPELRLGLNDKVLFDNTGRGKSKSVELEDVKFHQCVRLSRFENDRTISFIPPDGEFELMSYRLNTHVKPLIWIESVIEKHSHSRIEYMIKAKSQFKRRSTANNVEIHIPVPNDADSPKFKTTVGSVKWVPENSEIVWSIKSFPGGKEYLMRAHFGLPSVEAEDKEGKPPISVKFEIPYFTTSGIQVRYLKIIEKSGYQALPWVRYITQNGDYQLRTQ
 | binds |  | MX1 (protein, UniProt P20591 1-662) MVVSEVDIAKADPAAASHPLLLNGDATVAQKNPGSVAENNLCSQYEEKVRPCIDLIDSLRALGVEQDLALPAIAVIGDQSSGKSSVLEALSGVALPRGSGIVTRCPLVLKLKKLVNEDKWRGKVSYQDYEIEISDASEVEKEINKAQNAIAGEGMGISHELITLEISSRDVPDLTLIDLPGITRVAVGNQPADIGYKIKTLIKKYIQRQETISLVVVPSNVDIATTEALSMAQEVDPEGDRTIGILTKPDLVDKGTEDKVVDVVRNLVFHLKKGYMIVKCRGQQEIQDQLSLSEALQREKIFFENHPYFRDLLEEGKATVPCLAEKLTSELITHICKSLPLLENQIKETHQRITEELQKYGVDIPEDENEKMFFLIDKVNAFNQDITALMQGEETVGEEDIRLFTRLRHEFHKWSTIIENNFQEGHKILSRKIQKFENQYRGRELPGFVNYRTFETIVKQQIKALEEPAVDMLHTVTDMVRLAFTDVSIKNFEEFFNLHRTAKSKIEDIRAEQEREGEKLIRLHFQMEQIVYCQDQVYRGALQKVREKELEEEKKKKSWDFGAFQSSSATDSSMEEIFQHLMAYHQEASKRISSHIPLIIQFFMLQTYGQQLQKAMLQLLQDKDTYSWLLKERSDTSDKRKFLKERLARLTQARRRLAQFPG
